Experimental data from article PMC2925374, “Oligomerization of Uukuniemi virus nucleocapsid protein” (Virology Journal, 2010).
Read-outs that look alike come from different tables or passages of the source. Results are given in words; binding and its absence hold for the method and conditions named. For part of these data: Binding seen in cells or lysates may run through a third protein. Some binding calls cover weakened binding; strength is not graded here. For part of these data: Sequences can lack the tags named with a protein.

How the values were obtained:
[1] = molecular target: T1, Uukuniemi virus nucleocapsid (N) protein, full length, mammalian two-hybrid fusions (pM-UUKV-N and pVP-UUKV-N) (Uukuniemi virus) (UniProt P22025); experiment: two-hybrid; mammalian two-hybrid in HeLa cells: GAL4 DNA-BD (pM) and VP16 DNA-AD (pVP) fusions, pG5luc firefly luciferase normalised to Renilla luciferase, 24 h post-transfection; percent of the wt N-N interaction
T1 sequence: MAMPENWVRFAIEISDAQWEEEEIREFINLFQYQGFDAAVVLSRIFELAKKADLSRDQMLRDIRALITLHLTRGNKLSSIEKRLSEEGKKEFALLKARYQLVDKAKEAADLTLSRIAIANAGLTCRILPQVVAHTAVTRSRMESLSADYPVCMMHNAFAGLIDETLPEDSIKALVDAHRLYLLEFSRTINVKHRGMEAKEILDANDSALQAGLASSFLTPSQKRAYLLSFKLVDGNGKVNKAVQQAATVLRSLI

[2] = molecular target: T1, Uukuniemi virus nucleocapsid (N) protein, full length, mammalian two-hybrid fusions (pM-UUKV-N and pVP-UUKV-N) (Uukuniemi virus); experiment: as above; remark: listed apart in the source
[3] = molecular target: Uukuniemi virus nucleocapsid (N) protein, full-length wild type (pcDNA-UUKV-N) (Uukuniemi virus) (UniProt P22025); experiment: cross-linking; data not shown; BS3 cross-linking of lysates of COS-7 cells transfected with wt or mutant pcDNA-UUKV-N constructs

“UUKV-N protein deletion mutant ΔN34, mammalian two-hybrid fusion (from UniProt P22025 35-254) (domain or fragment)” was tested, and the binding [1] was “no binding”.

B1: Uukuniemi virus nucleocapsid (N) protein, full length, mammalian two-hybrid fusions (pM-UUKV-N and pVP-UUKV-N) (protein, UniProt P22025 1-254)
chain: T1 sequence
With B1 the binding [2] was “binds”.

B2: Uukuniemi virus nucleocapsid (N) protein, full-length wild type (pcDNA-UUKV-N) (natural protein)
chain: T1 sequence
notes: Uukuniemi virus nucleocapsid (N) protein, 254 aa residues; No tag is mentioned; detected with a rabbit antiserum against UUKV-N; also called UUKV-N protein; wt N protein; source: COS-7, transfected (pcDNA-UUKV-N), in lysate
With B2 the binding [3] was “binds”.
